PubChem BioAssay AID540276 (National Center for Advancing Translational Sciences (NCATS), 2011)
In all, about 300,000 compounds went through this assay and about 5,400 (1.8%) were called active. The inconclusive results got no clear call from the source; some entries with a clear call stand among them for comparison. Calls come from the whole dose curve; tested in HEK293 cells. Potencies of inconclusive entries are doubtful fits and often do not repeat.

assay: qHTS for inhibitors of binding or entry into cells for Marburg Virus; conditions: Marburg virus pseudotyped entry inhibition, cell reporter; activity change, negative = inhibition: at 37.8 µM (top of the series) unless noted
% is set by controls: 0 for no effect and ±100 for the full control effect; potency is the fitted concentration of half-maximal effect.

| Compound | Potency | activity change, negative = inhibition |
| --- | --- | --- |
| CCC(C)n1c(=N)c(C(=O)NC2CCCCC2)cc2c(=O)n3cc(C)ccc3nc21 (stereo unspecified) | inactive |  |
| CCOc1ccc2nc(NCCCO)[nH]c2c1 | inconclusive: 11.6 µM [inhibitor, partial curve, poor fit] |  |
| O=C(Nc1cccc(Cl)c1)c1ccc2c(c1)OCCO2 | inconclusive: 14.1 µM [inhibitor, single point] |  |
| O=C(OCc1cc(=O)n2c(n1)sc1ccccc12)c1ccc(O)cc1 | inconclusive: 3.16 µM [activator, single point] |  |
| O=C(CSCc1ccccc1Br)N/N=C/c1ccc2c(c1)OCO2 | inconclusive: 35.5 µM [inhibitor, single point] |  |
| COc1ccccc1N1CCN(Cc2cc(COC(C)C)c3cccnc3c2O)CC1 | active: 3.98 µM |  |
| Cc1c(/C(O)=C2\C(=O)C(=O)N(CCCN(C)C)C2c2ccco2)cnn1-c1ccccc1 (stereo unspecified) | inconclusive: 7.94 µM [activator, partial curve] |  |
| CSCCC(NC(=O)c1ccccc1Cl)C(=O)NCC(c1ccco1)N1CCCCC1 (stereo unspecified) | inconclusive: 28.2 µM [inhibitor, single point] |  |
| COc1ccc(S(=O)(=O)N(C(=O)c2ccncc2)c2ccc3oc(C)c(C(C)=O)c3c2)cc1 | inconclusive: 2.51 µM [inhibitor, full curve, poor fit] |  |
| Cc1ccnc(NC(c2cc(C)ccc2O)c2ccc3cccnc3c2O)c1 (stereo unspecified) | inconclusive: 2 µM [inhibitor, full curve, poor fit] |  |
| CCOc1ccccc1-c1nc(CN2CCC(C(=O)N3CCOCC3)CC2)c(C)o1 | inactive |  |
| Cc1ccc(C)c(NC(=O)C(NS(=O)(=O)c2ccc3c(c2)CCC(=O)N3)c2ccccc2)c1 (stereo unspecified) |  | inconclusive: 5.46% [activator] [at 46.1 µM] |
| COc1ccc(C(=O)N2N=C(c3cccs3)CC2c2ccccc2O)cc1 (stereo unspecified) | inconclusive: 25.1 µM [inhibitor, single point] |  |
| COc1ccc(S(=O)(=O)N2CCCC2)cc1C(=O)N1CCOCC1 | inconclusive: 0.316 µM [inhibitor, full curve, poor fit] |  |
| N#Cc1c(SCC(N)=O)nc(-c2ccccc2)c2c1CCCC2 | inconclusive: 10 µM [inhibitor, partial curve, poor fit] |  |
| Cc1ccc(C(=O)c2cc(C)sc2NC(=O)CN2CCN(C(=O)c3ccco3)CC2)cc1 | inconclusive: 35.5 µM [inhibitor, single point] |  |
| COc1cc(/C=N/Nc2cc(C)nc(NS(=O)(=O)c3ccccc3)n2)ccc1O | inconclusive: 35.5 µM [inhibitor, single point] |  |
| COc1ccccc1NC(=O)c1cc(OC)c(OC)cc1[N+](=O)[O-] | inconclusive: 7.94 µM [inhibitor, partial curve] |  |
| N#Cc1c(C(F)(F)F)cc(-c2ccc(Cl)cc2)[nH]c1=O | inconclusive: 29.1 µM [inhibitor, single point] |  |
| Cc1cccc(C(=O)NCc2cn3cccc(C)c3n2)c1 | inconclusive: 6.31 µM [inhibitor, partial curve, poor fit] |  |
| CCOC(=O)NC(=O)/C(C=Nc1ccc(Cl)c(Cl)c1Cl)=C(\C)O | inactive |  |
| CN(C)CC1Oc2ccccc2OC1(O)c1ccccc1 (stereo unspecified) | inconclusive: 12.6 µM [inhibitor, partial curve, poor fit] |  |

| Compound | Potency | activity change, negative = inhibition |
| --- | --- | --- |
| COc1ccc(C(=O)Nc2ccc(N3CCCC3)cc2)cc1 | inactive |  |
| CCCc1cc(=O)oc2c3c(cc(OCC(=O)N[C@@H](C)C(=O)O)c12)OC(C)(C)CC3 | inactive |  |
| COc1cc(/C=N/Nc2nc(Nc3ccccc3)nc(N3CCOCC3)n2)ccc1OC(=O)c1ccco1 | active: 2.06 µM |  |
| CC(=O)NC(Cc1ccccc1)C(=O)NC1CCN(C(=O)NCc2ccccc2)CC1 (stereo unspecified) | inconclusive: 5.01 µM [activator, full curve] |  |
| COc1cc(N)ccc1Cc1ccc(N)cc1OC | inconclusive: 11.2 µM [inhibitor, partial curve, poor fit] |  |
| Cc1cc2ccccn2c1C(=O)c1ccc(F)cc1 | inconclusive: 10 µM [inhibitor, partial curve, poor fit] |  |
| CN(C)C1(CNC(=O)COc2cccc(Cl)c2)CCCCC1 | inconclusive: 35.5 µM [inhibitor, single point] |  |
| O=C(Cc1cccc2ccccc12)N/N=C/c1ccc2cccc(O)c2n1 | inconclusive: 35.5 µM [inhibitor, single point] |  |
| COC(=O)CN1C(=O)N/C(=C/c2ccc(C)o2)C1=O | inactive |  |
| O=C1CCC[C@@H]2[C@H]3CCC[N+]4([O-])CCC[C@@H](CN12)[C@@H]34 (stereo partly specified) | inconclusive: 2.82 µM [activator, full curve] |  |
| O=C(O)c1cc2c(cc1NC(=O)c1c(F)cccc1Cl)OCCCO2 | inactive |  |
| COc1ccc2nc(NS(=O)(=O)c3ccc(NC(C)=O)cc3)sc2c1 | inactive |  |
| O=c1[nH]cnc2c1sc(=S)n2-c1ccccc1 | inconclusive: 0.651 µM [activator, full curve, poor fit] |  |
| COc1ccc(/C=N\NC(=O)COc2ccc(C(C)(C)C)cc2)cc1Cn1nc(C)cc1C | inconclusive: 35.5 µM [inhibitor, single point] |  |
| Cc1c(NC(=O)Nc2ccc(F)cc2)c(=O)n(-c2ccccc2)n1C | inactive |  |
| Cc1cc(=O)[nH]c(SCc2nc3ccccc3s2)n1 | inactive |  |
| CC(c1ccccc1)N(NC(=O)C(O)(c1ccccc1)c1ccccc1)C(=O)c1ccccc1 (stereo unspecified) | inconclusive: 8.91 µM [inhibitor, partial curve, poor fit] |  |
| COc1ccc(NC(=O)CSc2cccc3cccnc23)c(OC)c1 | inactive |  |
| CCCCn1c(N)c(N(CC(C)C)C(=O)CSCC(=O)Nc2ccc(C)cc2)c(=O)[nH]c1=O | inactive |  |
| O=C(CSc1nnc(-c2ccco2)o1)c1ccccc1 | inconclusive: 2.31 µM [activator, partial curve, poor fit] |  |
| Cc1ccc(NC(=O)C(C)c2ccc(-c3ccccc3)c(F)c2)cc1 (stereo unspecified) | inconclusive: 14.1 µM [inhibitor, partial curve, poor fit] |  |
| Cc1ccc(-c2nc3ccccc3s2)cc1S(=O)(=O)N1CCOCC1 | inconclusive: 29.1 µM [inhibitor, single point] |  |

5 successive compounds out of the list so far, for reference:

| Compound | Potency | activity change, negative = inhibition |
| --- | --- | --- |
| COC(=O)CN1C(=O)N/C(=C/c2ccc(C)o2)C1=O | inactive |  |
| O=C1CCC[C@@H]2[C@H]3CCC[N+]4([O-])CCC[C@@H](CN12)[C@@H]34 (stereo partly specified) | inconclusive: 2.82 µM [activator, full curve] |  |
| O=C(O)c1cc2c(cc1NC(=O)c1c(F)cccc1Cl)OCCCO2 | inactive |  |
| COc1ccc2nc(NS(=O)(=O)c3ccc(NC(C)=O)cc3)sc2c1 | inactive |  |
| O=c1[nH]cnc2c1sc(=S)n2-c1ccccc1 | inconclusive: 0.651 µM [activator, full curve, poor fit] |  |

(continued)

| Compound | Potency | activity change, negative = inhibition |
| --- | --- | --- |
| COc1ccc2c(Cl)c(C(=O)N/N=C3\CCCC(=O)C3)sc2c1 | inconclusive: 35.5 µM [activator, single point] |  |
| Cc1[nH]c2ccccc2c1SCCNC(=O)c1ccc(F)cc1 | inconclusive: 11.2 µM [inhibitor, partial curve, poor fit] |  |
| Cc1nc2ccc(NC(=O)c3ccc(Cl)c(S(=O)(=O)N(C)c4ccccc4)c3)cc2s1 | inconclusive: 4.47 µM [inhibitor, full curve, poor fit] |  |
| O=S(=O)(NCc1nnc2ccccn12)c1ccc(Cl)cc1 | inconclusive: 0.316 µM [inhibitor, partial curve, poor fit] |  |
| Cc1ccc(C)c(N2CCN(S(=O)(=O)c3ccc(C4CCCCC4)cc3)CC2)c1 | inconclusive: 35.5 µM [inhibitor, single point] |  |
| CCOc1nc(NC(=O)NS(=O)(=O)c2ccccc2F)nc(-c2ccccc2)n1 | inconclusive: 35.5 µM [activator, single point] |  |
| CC(=O)N1N=C(c2cccs2)CC1c1ccco1 (stereo unspecified) | inactive |  |
| COc1ccc(NS(=O)(=O)c2cc(NC(=O)c3ccccc3F)ccc2N2CCCC2)cc1 | inconclusive: 35.5 µM [inhibitor, single point] |  |
| Cc1cc(C)c(NC(=O)/C(C#N)=C/c2ccc(OCc3ccc(F)cc3)cc2)c(C)c1 | inconclusive: 1.12 µM [inhibitor, full curve, poor fit] |  |
| Cc1ccc(S(=O)(=O)/N=C(/c2ccccc2)N2CCOCC2)c(C)c1 | inconclusive: 0.562 µM [activator, full curve, poor fit] |  |
| Cc1ccc(OCCN2C(=O)CSC2=O)cc1 | inactive |  |
| COC(=O)C1=C(C)Nc2c(c(=O)n(C)c(=O)n2C)C1c1ccc(Cl)cc1 (stereo unspecified) | inconclusive: 0.355 µM [inhibitor, partial curve, poor fit] |  |
| Cc1ccc(OCC(=O)Nc2cccc(C)n2)c(C)c1 | inconclusive: 3.55 µM [activator, partial curve, poor fit] |  |
| CC(=O)Nc1nonc1-c1nnc(SCc2cccc(Br)c2)n1C | inactive |  |
| O=C(CSc1nnc(C2CC2)n1C1CC1)c1cc(F)ccc1F | inconclusive: 3.98 µM [activator, full curve] |  |
| O=C(COC(=O)/C=C/c1ccc([N+](=O)[O-])cc1)NNC(=O)c1ccccc1 | inconclusive: 0.0891 µM [inhibitor, full curve, poor fit] |  |
| CCOC(=O)c1c(NC(=O)CN2C(=O)NC(C)(c3ccccc3)C2=O)sc(C)c1C (stereo unspecified) | inconclusive: 17.8 µM [inhibitor, single point] |  |
| COc1cc(/C=C(\C#N)c2nc3c(s2)CCCC3)ccc1O | inactive |  |
| O=C1/C(=C/c2cccnc2)Oc2cc(OS(=O)(=O)c3ccccc3)ccc21 | inconclusive: 29.1 µM [inhibitor, single point] |  |
| COC(=O)c1cc(OC)c(OC)cc1NC(=O)Nc1ccc(OC)cc1 | inconclusive: 4.47 µM [inhibitor, partial curve, poor fit] |  |
| CCOC(=O)c1sc2ncc([N+](=O)[O-])cc2c1N | inactive |  |
| O=C(N/N=C/c1cc([N+](=O)[O-])ccc1O)C(O)(c1ccccc1)c1ccccc1 | inconclusive: 28.2 µM [inhibitor, single point] |  |
